Earlier results as cited in patent US12622895B2, “Anti-neurodegenerative combinations and use for treatment of neurodegenerative diseases” (ALTO NEUROSCIENCE, INC., priority 2018, dated 2026).

Test system: brain cell systems
Settings: cited from earlier work

CC(C)c1c(C(=O)Nc2ccccc2)c(-c2ccccc2)c(-c2ccc(F)cc2)n1CC[C@@H](O)C[C@@H](O)CC(=O)O [atorvastatin, (3R,5R)-7-[2-(4-fluorophenyl)-3-phenyl-4-(phenylcarbamoyl)-5-propan-2-ylpyrrol-1-yl]-3,5-dihydroxyheptanoic acid]
consequences of the dopaminergic neurotoxin 6-OHDA: protect against the deleterious consequences of the dopaminergic neurotoxin 6-hydroxydopamine
